# Assay results: PubChem BioAssay AID651768 (National Center for Advancing Translational Sciences (NCATS), 2012)
# Protein sequences, listed by entry. Tags and fused reporters are not part of them.
# UniProt Q14191, whole entry, looked up: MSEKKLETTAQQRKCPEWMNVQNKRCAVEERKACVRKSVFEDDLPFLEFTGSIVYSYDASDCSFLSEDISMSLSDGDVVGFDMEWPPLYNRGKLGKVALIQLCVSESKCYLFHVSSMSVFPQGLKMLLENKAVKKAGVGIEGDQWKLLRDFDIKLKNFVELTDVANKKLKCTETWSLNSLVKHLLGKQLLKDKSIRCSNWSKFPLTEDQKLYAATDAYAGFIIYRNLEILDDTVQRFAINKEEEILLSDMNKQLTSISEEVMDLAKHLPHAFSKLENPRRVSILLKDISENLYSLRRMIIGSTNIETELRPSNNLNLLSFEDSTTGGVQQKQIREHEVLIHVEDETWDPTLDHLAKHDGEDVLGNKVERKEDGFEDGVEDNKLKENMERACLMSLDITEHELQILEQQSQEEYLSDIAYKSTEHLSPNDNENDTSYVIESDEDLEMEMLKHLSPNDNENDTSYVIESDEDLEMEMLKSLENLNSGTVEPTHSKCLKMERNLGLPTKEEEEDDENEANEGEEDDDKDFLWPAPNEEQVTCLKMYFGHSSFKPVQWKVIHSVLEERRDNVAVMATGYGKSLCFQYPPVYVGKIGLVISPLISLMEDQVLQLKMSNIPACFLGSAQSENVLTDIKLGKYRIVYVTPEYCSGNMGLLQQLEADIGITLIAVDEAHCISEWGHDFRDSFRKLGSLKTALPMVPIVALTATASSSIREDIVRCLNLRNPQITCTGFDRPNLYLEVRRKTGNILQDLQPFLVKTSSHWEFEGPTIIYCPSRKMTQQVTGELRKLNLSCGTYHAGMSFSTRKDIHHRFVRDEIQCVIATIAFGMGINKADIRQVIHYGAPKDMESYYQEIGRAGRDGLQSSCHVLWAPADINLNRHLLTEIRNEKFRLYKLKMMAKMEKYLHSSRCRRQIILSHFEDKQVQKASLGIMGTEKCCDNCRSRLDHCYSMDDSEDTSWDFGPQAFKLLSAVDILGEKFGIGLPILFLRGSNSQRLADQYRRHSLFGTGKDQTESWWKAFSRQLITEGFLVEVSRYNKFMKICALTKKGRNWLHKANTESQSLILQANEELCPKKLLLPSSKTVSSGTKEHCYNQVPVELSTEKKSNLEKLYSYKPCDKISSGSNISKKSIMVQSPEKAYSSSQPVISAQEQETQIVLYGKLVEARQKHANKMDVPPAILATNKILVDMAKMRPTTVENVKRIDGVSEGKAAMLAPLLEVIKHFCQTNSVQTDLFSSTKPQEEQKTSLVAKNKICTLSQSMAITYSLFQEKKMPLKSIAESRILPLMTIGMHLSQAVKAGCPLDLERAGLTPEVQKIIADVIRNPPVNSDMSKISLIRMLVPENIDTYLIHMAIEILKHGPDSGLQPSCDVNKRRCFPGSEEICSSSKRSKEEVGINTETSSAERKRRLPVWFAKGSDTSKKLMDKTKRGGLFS
# Among all 360,000 compounds or so, about 1,700 (0.47%) were called active. Inconclusive results, whose numbers are uncertain, are shown with a selection of clear calls. Calls follow the shape of the dose curve; as a rule, active = well fitted inhibition curve with a large enough effect; inconclusive = small, poorly fitted or top-dose-only effect; inactive = no such curve, though single readings can be large or run the other way. A potency beside an inconclusive call is a rough fit, not a confirmed value.
# Biological target: Bifunctional 3'-5' exonuclease/ATP-dependent helicase WRN (Homo sapiens) (UniProt Q14191)
# Assay: qHTS for Inhibitors of WRN Helicase; also: nearly all actives have a fitted effect of over 55% in size
# Settings: WRN helicase unwinding, fluorescent forked duplex, kinetic; activity change, negative = inhibition: at 114 µM (top of the series) unless noted
# Procedure, shortened: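 Kinetic fluorescence helicase assay: unwinding of a quenched forked DNA duplex (100 nM final) with 2 mM ATP final raises red fluorescence (525/598 nm). Compounds sat 15 min at room temperature with 20 nM WRN beforehand.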
# % is scaled to controls: 0 for no effect and ±100 for the full control effect; potency is read from the fitted curve at half-maximal effect.
Structure (SMILES),Potency,"activity change, negative = inhibition"
O=C(NC1CCCC1)C(c1ccc(F)cc1)N(Cc1ccc(F)cc1)C(=O)CCl (centres undefined),"inconclusive: 11.2 µM [inhibitor, partial curve]",–
Cc1ccc(NC(=S)Nc2cccc3cnccc23)cc1C,inactive,–
COCc1cc(C)nc(OCC(=O)N/N=C/c2ccc(OC)c(OC)c2)c1C#N,"inconclusive: 20 µM [inhibitor, single point]",–
O=C(c1ccc(NC(=O)C(c2ccccc2)c2ccccc2)cc1)c1ccc(C(=O)O)c(C(=O)O)c1,"inconclusive: 10 µM [inhibitor, full curve, poor fit]",–
Cc1[nH]n(-c2ncc(-c3ccccc3)s2)c(=O)c1C(c1ccc(Cl)cc1)C(C#N)C#N (centres undefined),"inconclusive: 18.9 µM [inhibitor, partial curve]",–
CC(C)OC(=O)c1cn(-c2ccccc2)nc1-c1ccco1,"inconclusive: 39.8 µM [inhibitor, partial curve]",–
Nn1c(SCC(=O)Nc2cccnc2Cl)nnc1-c1ccccc1,"inconclusive: 39.8 µM [inhibitor, partial curve]",–
Cc1cc(=O)c2c(o1)C(=O)c1occc1C2=O,active: 25.1 µM,–
O=C(CCN1C(=O)S/C(=C\c2ccccc2)C1=O)Nc1ccc(S(=O)(=O)Nc2nccs2)cc1,"inconclusive: 39.8 µM [inhibitor, partial curve]",–
COc1cc(NS(=O)(=O)c2ccc(Nc3nc(-c4cccc([N+](=O)[O-])c4)cs3)cc2)nc(OC)n1,"inconclusive: 39.8 µM [inhibitor, single point]",–
COc1cc(C(=S)N2CCN(c3ccccc3Cl)CC2)cc(O)c1O,"inconclusive: 70.8 µM [inhibitor, single point]",–
Nc1nonc1C(=O)N/N=C/c1cc(Br)ccc1O,"inconclusive: 12.6 µM [inhibitor, partial curve]",–
O=C(N/N=C/c1ccc(O)c(O)c1)N/N=C/c1ccc(O)c(O)c1,active: 3.98 µM,–
Cc1noc(C)c1C(=O)N1CCC1(C)C(=O)NS(=O)(=O)Cc1cccc(Cl)c1 (centres undefined),inactive,–
COc1ccc(OC(=O)c2c(C)nn(-c3ccccc3)c2C)cc1,"inconclusive: 3.55 µM [inhibitor, full curve, poor fit]",–
COc1cccc(N2CC(C(=O)Nc3nnc(SCC(=O)N4CCCC4)s3)CC2=O)c1 (centres undefined),"inconclusive: 35.5 µM [inhibitor, partial curve]",–
N#C/C(=C\c1ccc[nH]1)Sc1nc2ccccc2s1,–,inconclusive: -38.1% [inhibitor] [at 57.1 µM]
Cc1c(C(=O)N/N=C/c2ccc(-c3ccccc3[N+](=O)[O-])o2)sc(N)c1C#N,"inconclusive: 79.4 µM [inhibitor, partial curve]",–
CSC1=NSC2=NC(=O)/C(=C\c3coc4ccccc4c3=O)C(=N)N12,active: 56.2 µM,–
C=CCNc1nc(Cl)nc(Nc2ccc([N+](=O)[O-])cc2)n1,"inconclusive: 39.8 µM [inhibitor, single point]",–
COc1ccc(-c2nnc3ccc(SCC(=O)N4CCOCC4)nn23)cc1,inactive,–
Cc1noc(C)c1C(=O)Nc1ccccc1N1CCCC1,inactive,–

Structure (SMILES),Potency,"activity change, negative = inhibition"
Cc1ccc(S(=O)(=O)N(C)c2ccc(OCc3cccc(C)c3)cc2)cc1,"inconclusive: 79.4 µM [inhibitor, single point]",–
Cc1ccccc1C(=O)OC1OC(=O)C(Cl)=C1Nc1ccccc1 (centres undefined),"inconclusive: 35.5 µM [inhibitor, single point]",–
CC(=O)c1ccc(Cc2cnc(N)s2)cc1,inactive,–
CCC(=O)OCCNc1cc(Sc2nccn2C)c2nonc2c1[N+](=O)[O-],"inconclusive: 50.1 µM [inhibitor, partial curve]",–
Cc1cccc(C(=O)Nc2ccc(C(=O)N/N=C/c3ccc4c(c3)OCO4)cc2)c1,inactive,–
CCC(=O)Nc1c(C)n[nH]c1C,inactive,–
CC(NC(=O)CN1c2cccc3cccc(c23)S1(=O)=O)c1ccc(S(N)(=O)=O)cc1 (centres undefined),"inconclusive: 56.2 µM [inhibitor, partial curve]",–
CC1=NOC(=O)/C1=C\c1ccc(-c2ccccc2Br)o1,active: 56.2 µM,–
CC1CCCCC1NCc1cccc([N+](=O)[O-])c1 (centres undefined),inactive,–
N=C1/C(=C/c2ccco2)C(=O)N=C2SC(CC(=O)N3CCCC3)=NN12,active: 50.1 µM,–
CSC1=NCCN1C(=O)c1ccc(C)cc1,inactive,–
COc1ccc(OC)c(NC(=O)CSc2nnc(-c3ccncc3)s2)c1,"inconclusive: 70.8 µM [inhibitor, single point]",–
O=C(NCC(c1ccco1)N1CCCC1)c1ccc(S(=O)(=O)Nc2ccccc2Cl)cc1 (centres undefined),inactive,–
CC(=O)Oc1cc(C(=O)OCC(=O)NC23CC4CC(CC(C4)C2)C3)cc(OC(C)=O)c1OC(C)=O,active: 14.1 µM,–
CCOc1cccc(=O)c2c(C)n(-c3ccc(C(=O)O)cc3)c(C)c12,"inconclusive: 44.7 µM [inhibitor, full curve, poor fit]",–
Cc1cc(N2CC(C)OC(C)C2)nc(C(C)C)n1 (centres undefined),"inconclusive: 89.1 µM [inhibitor, single point]",–
Cc1cc2cc(CNS(=O)(=O)c3ccccc3)ccc2n1C,"inconclusive: 39.8 µM [inhibitor, partial curve]",–
CCN(C(=O)COC(=O)CN(C)S(=O)(=O)c1ccc(NC(C)=O)cc1)C1CCS(=O)(=O)C1 (centres undefined),"inconclusive: 89.1 µM [inhibitor, single point]",–
O=C(CSc1ccsc1[N+](=O)[O-])N1CCN(c2ccccn2)CC1,"inconclusive: 31.6 µM [inhibitor, single point]",–
CC(C)(C)OC(=O)NCCCC[C@H](NC(=O)c1nc[nH]c1C(=O)NC(c1ccccc1)c1ccccc1)C(=O)OC(C)(C)C,"inconclusive: 89.1 µM [inhibitor, partial curve]",–
O=C(O)CSC(=S)N1CCCCC1,"inconclusive: 28.2 µM [inhibitor, single point]",–
Cc1ccc(C)n1-c1ccc(C(=O)/C=C/N(C)C)cc1,"inconclusive: 89.1 µM [inhibitor, single point]",–

# 3 structures from above, sorted by molecular weight, largest number first:
Structure (SMILES),Potency,"activity change, negative = inhibition"
CC(C)(C)OC(=O)NCCCC[C@H](NC(=O)c1nc[nH]c1C(=O)NC(c1ccccc1)c1ccccc1)C(=O)OC(C)(C)C,"inconclusive: 89.1 µM [inhibitor, partial curve]",–
Cc1cccc(C(=O)Nc2ccc(C(=O)N/N=C/c3ccc4c(c3)OCO4)cc2)c1,inactive,–
CC(=O)c1ccc(Cc2cnc(N)s2)cc1,inactive,–
